Some of the results follow.

The target of this assay is T1, OsSMF1 (Oryza sativa, UniProt Q6ZLB0 1-436).
T1 sequence: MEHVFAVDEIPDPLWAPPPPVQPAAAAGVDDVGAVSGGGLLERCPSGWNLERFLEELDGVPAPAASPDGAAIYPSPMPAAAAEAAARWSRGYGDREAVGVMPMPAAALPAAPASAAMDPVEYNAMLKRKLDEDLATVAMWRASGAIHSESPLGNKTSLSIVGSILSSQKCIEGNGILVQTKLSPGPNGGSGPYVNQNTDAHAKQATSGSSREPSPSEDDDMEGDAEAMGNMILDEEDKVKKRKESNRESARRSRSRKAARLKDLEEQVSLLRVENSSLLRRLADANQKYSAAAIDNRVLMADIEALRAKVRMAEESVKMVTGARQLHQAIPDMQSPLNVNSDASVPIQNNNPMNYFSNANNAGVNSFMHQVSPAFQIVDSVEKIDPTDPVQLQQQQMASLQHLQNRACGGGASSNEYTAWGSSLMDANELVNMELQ
As to the kind of experiment: protein-binding microarray (RPBM); PBS, 2% BSA, 51.3 ng/ul salmon testes DNA, 50 uM zinc acetate, 200 nM TF, 25 C, 1 h; high values mean tight binding. The settings on record: protein: recombinant; tags: N-terminal polyhistidine and DsRed monomer fusion (pET32a); chain copies: 2; label: CyDye5-dUTP incorporated in the synthesized complementary strand; 3' TTTTT single-stranded linker to array surface; dsDNA, one strand shown. In a few lines:
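Transcription factors were made in E. coli BL21-CodonPlus as N-terminal fusions to a polyhistidine tag and DsRed, then purified on Ni–NTA. After primer extension with Cy5-dUTP and blocking with 2% BSA, a custom Agilent array was exposed for 1 h at 25 °C to 200 nM protein in PBS, 2% BSA, salmon testes DNA and 50 µM zinc acetate. Washed arrays were scanned on an Axon 4000B, and the binding signal is per-feature fluorescence intensity in arbitrary units.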
In the case of “CCATTTCAACAGTTAATTTAGGCTATTTTGGCTTCAATCCCGGAGTCACCTAGTGCAG”, the binding signal is 18600 fluorescence intensity (a.u.). As for “ACAACCACTTTTAACCCAAAGACCAAGAAATAATTATTATCGGAGTCACCTAGTGCAG”, the figure is 31400 fluorescence intensity (a.u.); as for “TGGAAGTATACGAGTGAGCCACGTGCTCTGCTTTCCTTCTCGGAGTCACCTAGTGCAG”, 3960 fluorescence intensity (a.u.). As for “GACAACGTGGGGCCACGCGTACCACGGATGGAGTACAGTCCGGAGTCACCTAGTGCAG”, the figure is 3660 fluorescence intensity (a.u.); as for “ATAAGATATGCAGCTGACATGTGGACCCCACATGCTTTGCCGGAGTCACCTAGTGCAG”, 4140 fluorescence intensity (a.u.); as for “ATGTGTTTGGAGCTTCGTGGTGCTCTGTTCTGCGCGCGTGCGGAGTCACCTAGTGCAG”, 3320 fluorescence intensity (a.u.). As for “TATTACTGTACGGAGTATTATCCATGACGAGTATAGGTACCGGAGTCACCTAGTGCAG”, the figure is 3680 fluorescence intensity (a.u.). Regarding “GAGAGAGGGAATGGCATGTGGGGCCTATGTGGACCCCACCCGGAGTCACCTAGTGCAG”, the binding signal is 5440 fluorescence intensity (a.u.). The result for “GAATAAGCGATGTTAACACTGGCAGCGGCTGTGCATGTAGCGGAGTCACCTAGTGCAG” reads 37500 fluorescence intensity (a.u.). The result for “CCAATTCACTCCACCATACTGTTGGCACCTATGATAGAACCGGAGTCACCTAGTGCAG” reads 3430 fluorescence intensity (a.u.). As for “GCTGGGATTGCCCGCGTGGAGGCGACTCAGCCGTCGGATCCGGAGTCACCTAGTGCAG”, the figure is 3720 fluorescence intensity (a.u.).

As to “TAGCTAACTTAGAGATAGATTAGCATGTATGACACATCAACGGAGTCACCTAGTGCAG”, the binding signal was 4500 fluorescence intensity (a.u.).

As to “GCCCTAGGGATGACATCATCAGTCGGTTGATGGAGCAGTACGGAGTCACCTAGTGCAG”, the binding signal was 7440 fluorescence intensity (a.u.). As for “CTGAAGAATCTGTCTGTTTGCTGACTACAATGTTCTGTTTCGGAGTCACCTAGTGCAG”, the binding signal is 4170 fluorescence intensity (a.u.). Turning to “GGTTGTACTATGCCAATTTGAACCAGCTGTCGATTTATGTCGGAGTCACCTAGTGCAG”, the binding signal is 3210 fluorescence intensity (a.u.). As for “AAATTTATGCACACGTGTAGCGATCTCCTAGTCCTGATCGCGGAGTCACCTAGTGCAG”, the figure is 11400 fluorescence intensity (a.u.); as for “TATTTTGTAATCTCTCTCCTCCACGTAAGTTTATAGTAGGCGGAGTCACCTAGTGCAG”, 5960 fluorescence intensity (a.u.); as for “GGTCTAGCCTTAAGCTCGAACGCGGGGTGGTGGTTGTACCCGGAGTCACCTAGTGCAG”, 3430 fluorescence intensity (a.u.). Turning to “AACCTGCGCGCGCTGACGTGTCGCGGTCGCCCGCGACTTCCGGAGTCACCTAGTGCAG”, the binding signal is 8660 fluorescence intensity (a.u.). The result for “GAATTTTAGAGTGGCCCACGTGTCATCGACAATAAATAAGCGGAGTCACCTAGTGCAG” reads 5720 fluorescence intensity (a.u.).

For the sequence “GTGTCCTCGGAACGAACACGTATTTTCTAATTTACGTGTCCGGAGTCACCTAGTGCAG”, the binding signal is 4070 fluorescence intensity (a.u.).

With “GGGTTTAAGGGTTGGTTTGGTTTATGGTCTAGATAGGTCTCGGAGTCACCTAGTGCAG”, the binding signal was 3750 fluorescence intensity (a.u.).

As for “TGAGATGCGGGAAGGAGATACCAGTGATGGTGGTGTCATTCGGAGTCACCTAGTGCAG”, the binding signal is 3530 fluorescence intensity (a.u.).

As for “CCACCTATAAATATTGCATCGATCAACTCAAGTTGTCATCCGGAGTCACCTAGTGCAG”, the binding signal was 3690 fluorescence intensity (a.u.). On to “AAACAGCTTCCAAATCATTTCCCCTCCTCGTCTCCTCCAGCGGAGTCACCTAGTGCAG”, for which the binding signal is 3560 fluorescence intensity (a.u.). As for “GTTTGACGGTGGTGGAGCATCGATGCGTCAGCCGTGAACTCGGAGTCACCTAGTGCAG”, the figure is 7120 fluorescence intensity (a.u.); as for “GAGATTTGATGACTGGGATGCCACATGGACACCACGACAGCGGAGTCACCTAGTGCAG”, 13300 fluorescence intensity (a.u.). As for “ATATATACCTGCATACACTAGACTAGTATAATACCTGGCACGGAGTCACCTAGTGCAG”, the figure is 3530 fluorescence intensity (a.u.); as for “TAAGGGTTGTCATATCATGACATACCACTTGAATTTGTCCCGGAGTCACCTAGTGCAG”, 4550 fluorescence intensity (a.u.). The result for “ACGCCAAATCTGGTGGTAGATCAACCGCATGACTGTCATGCGGAGTCACCTAGTGCAG” reads 4820 fluorescence intensity (a.u.); that for “ACATCGTCCTAGGATGGGTGTCATCCTATGCTAGGTTGCTCGGAGTCACCTAGTGCAG”, 3840 fluorescence intensity (a.u.); that for “CGATCTCAGTCGCCACTTCCATGGCGTGGGCCGCGTGCCACGGAGTCACCTAGTGCAG”, 3980 fluorescence intensity (a.u.). For the sequence “TTGGTCCACGTGCTTTTCTGTTGTTTTACATACTCTGGCCCGGAGTCACCTAGTGCAG”, the binding signal was 6210 fluorescence intensity (a.u.). As for “TACACAGCTCGTGGACCTCACGGTGCTGTACCAGAAAGCGCGGAGTCACCTAGTGCAG”, the figure is 3140 fluorescence intensity (a.u.); as for “TGCACGGCCTCGTGAGATGAGATCATGCATGCAGGATTCACGGAGTCACCTAGTGCAG”, 18000 fluorescence intensity (a.u.); as for “TACTGATGTTAGAGGACGAAGACGACGTGGCGAAACACTGCGGAGTCACCTAGTGCAG”, 7260 fluorescence intensity (a.u.). The result for “GGGCCTTGAGCTCCGCCACTGTCAGCCCCGAGCTTCATCGCGGAGTCACCTAGTGCAG” reads 25800 fluorescence intensity (a.u.); that for “CACGCCAACTAGGATGGATAGATGGGCCACATGTATTCCACGGAGTCACCTAGTGCAG”, 3530 fluorescence intensity (a.u.).

As for “GGGTCCATATCACCGACAAACGCCAGTTGACGTGGCACTGCGGAGTCACCTAGTGCAG”, the binding signal was 16400 fluorescence intensity (a.u.). As for “AGCTCAGCTCTCTCTGCTCTGCTCTTTGCTCGATAACGACCGGAGTCACCTAGTGCAG”, the figure is 33600 fluorescence intensity (a.u.); as for “TGCCCTTCCCAAAGTGTGCATCTCTTGTGCTGACACTACACGGAGTCACCTAGTGCAG”, 4910 fluorescence intensity (a.u.). As for “AGGATGTGTAAGCTCCTGACTCAGAAATCTTAGTCCTCTTCGGAGTCACCTAGTGCAG”, the figure is 3730 fluorescence intensity (a.u.).

(Values after paper PMC7819943, “Rice protein-binding microarrays: a tool to detect cis-acting elements near promoter regions in rice”.)
